Taken from: PubChem BioAssay AID743121 (NCATS, 2013)
Assay: 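Genes whose silencing strengthens cell killing by camptothecin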 (primary screen). System: MDA-MB-231 cells, a human breast cancer line. Reagent: single siRNA against human genes, 20 nM siRNA (0.8 pmol per well). Timing: 120 h (drug added 48 h after transfection, read 72 h later). Treatment: camptothecin 20 nM (about EC30) for 72 h; vehicle 0.1% DMSO in parallel plates. Detection: 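Cell viability by ATP luminescence (CellTiter-Glo) as % of non-targeting siRNA wells, and the log2 ratio of viability without drug over viability with camptothecin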. Scale: log2 vehicle/camptothecin viability: higher = stronger sensitisation to camptothecin; viability with camptothecin and viability without drug: higher = more viable cells. Active means: 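Active genes have an RSA gene-level p-value below 0.001, computed from the ratios of their separate siRNAs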.
The whole screen tested about 26,000 reagents; this is an unselected part. 167 of all reagents (0.63%) count as active. 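Calls are per gene from RSA p-values that are not deposited; an individual active-marked siRNA can sensitise only weakly.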 The numbers tell different reagents against one gene apart. No sequences are given here.

| gene symbol | siRNA no. | log2 vehicle/camptothecin viability | viability with camptothecin (% of control) | viability without drug (% of control) | activity call |
| --- | --- | --- | --- | --- | --- |
| PGLYRP1 | 1 | 0.471 | 12.8 | 17.7 | inactive |
| PGLYRP1 | 2 | -0.534 | 91.7 | 63.3 | inactive |
| PGLYRP1 | 3 | 0.211 | 54.6 | 63.1 | inactive |
| CD99 | 1 | -0.0819 | 98.9 | 93.4 | inactive |
| CD99 | 2 | -0.614 | 94.7 | 61.9 | inactive |
| CD99 | 3 | 0.0612 | 95.6 | 99.7 | inactive |
| RASSF3 | 1 | -0.0796 | 46.8 | 44.3 | inactive |
| RASSF3 | 2 | 0.028 | 63.5 | 64.7 | inactive |
| RASSF3 | 3 | -0.116 | 76.8 | 70.9 | inactive |
| RASSF3 | 4 | -0.176 | 72.5 | 64.2 | inactive |
| FSHR | 1 | -0.101 | 55.3 | 51.5 | inactive |
| FSHR | 2 | -0.199 | 51.4 | 44.7 | inactive |
| FSHR | 3 | 0.22 | 66.7 | 77.6 | inactive |
| FSHR | 4 | -0.00763 | 52.2 | 52 | inactive |
| RNF123 | 1 | -0.306 | 85.7 | 69.3 | inactive |
| RNF123 | 2 | 0.0448 | 98.3 | 101 | inactive |
| RNF123 | 3 | 0.206 | 53.9 | 62.1 | inactive |
| RNF123 | 4 | -0.213 | 55.1 | 47.5 | inactive |
| TRIM47 | 1 | -0.283 | 109 | 89.9 | inactive |
| TRIM47 | 2 | -0.0963 | 50.3 | 47.1 | inactive |
| TRIM47 | 3 | -0.49 | 67.5 | 48.1 | inactive |
| TRIM47 | 4 | 0.0535 | 69.5 | 72.2 | inactive |
| TAB2 | 1 | 1.03 | 24.4 | 49.8 | active |
| TAB2 | 2 | 0.958 | 21.9 | 42.5 | active |
| TAB2 | 3 | 1.42 | 16.9 | 45.4 | active |
| TAB2 | 4 | 1.49 | 13.6 | 38.4 | active |
| MARK2 | 1 | -0.184 | 48.1 | 42.4 | inactive |
| MARK2 | 2 | -0.41 | 62.8 | 47.2 | inactive |
| MARK2 | 3 | -0.674 | 118 | 74.2 | inactive |
| MARK2 | 4 | -0.13 | 91.6 | 83.7 | inactive |

Records listed so far marked active:
| gene symbol | siRNA no. | log2 vehicle/camptothecin viability | viability with camptothecin (% of control) | viability without drug (% of control) | activity call |
| --- | --- | --- | --- | --- | --- |
| TAB2 | 1 | 1.03 | 24.4 | 49.8 | active |
| TAB2 | 2 | 0.958 | 21.9 | 42.5 | active |
| TAB2 | 3 | 1.42 | 16.9 | 45.4 | active |
| TAB2 | 4 | 1.49 | 13.6 | 38.4 | active |
